In publication PMC7990204:
Where a chain is given by its changes, count along the chain named. Results are given in words; binding and its absence hold for the method and conditions named. Binding seen in cells or lysates may run through a third protein. Some entries that bind do so weakly or less than the wild type. Sequences can lack the tags named with a protein.

Experiments:
[1] = target: T1, SMC1A (wildtype) (mouse (endogenous in V6.5 mESCs)) (UniProt Q9CU62); test: co-IP; endogenous proteins; 250 ug benzonase-treated nuclear extract of wildtype or SMC1A-R586W mESCs in 500 ul 1x low-stringency IP buffer, overnight at 4 C; 10 ug antibody (SMC1A, NIPBL, STAG2 or non-specific rabbit IgG) on Protein G Dynabeads; western blot
T1 sequence: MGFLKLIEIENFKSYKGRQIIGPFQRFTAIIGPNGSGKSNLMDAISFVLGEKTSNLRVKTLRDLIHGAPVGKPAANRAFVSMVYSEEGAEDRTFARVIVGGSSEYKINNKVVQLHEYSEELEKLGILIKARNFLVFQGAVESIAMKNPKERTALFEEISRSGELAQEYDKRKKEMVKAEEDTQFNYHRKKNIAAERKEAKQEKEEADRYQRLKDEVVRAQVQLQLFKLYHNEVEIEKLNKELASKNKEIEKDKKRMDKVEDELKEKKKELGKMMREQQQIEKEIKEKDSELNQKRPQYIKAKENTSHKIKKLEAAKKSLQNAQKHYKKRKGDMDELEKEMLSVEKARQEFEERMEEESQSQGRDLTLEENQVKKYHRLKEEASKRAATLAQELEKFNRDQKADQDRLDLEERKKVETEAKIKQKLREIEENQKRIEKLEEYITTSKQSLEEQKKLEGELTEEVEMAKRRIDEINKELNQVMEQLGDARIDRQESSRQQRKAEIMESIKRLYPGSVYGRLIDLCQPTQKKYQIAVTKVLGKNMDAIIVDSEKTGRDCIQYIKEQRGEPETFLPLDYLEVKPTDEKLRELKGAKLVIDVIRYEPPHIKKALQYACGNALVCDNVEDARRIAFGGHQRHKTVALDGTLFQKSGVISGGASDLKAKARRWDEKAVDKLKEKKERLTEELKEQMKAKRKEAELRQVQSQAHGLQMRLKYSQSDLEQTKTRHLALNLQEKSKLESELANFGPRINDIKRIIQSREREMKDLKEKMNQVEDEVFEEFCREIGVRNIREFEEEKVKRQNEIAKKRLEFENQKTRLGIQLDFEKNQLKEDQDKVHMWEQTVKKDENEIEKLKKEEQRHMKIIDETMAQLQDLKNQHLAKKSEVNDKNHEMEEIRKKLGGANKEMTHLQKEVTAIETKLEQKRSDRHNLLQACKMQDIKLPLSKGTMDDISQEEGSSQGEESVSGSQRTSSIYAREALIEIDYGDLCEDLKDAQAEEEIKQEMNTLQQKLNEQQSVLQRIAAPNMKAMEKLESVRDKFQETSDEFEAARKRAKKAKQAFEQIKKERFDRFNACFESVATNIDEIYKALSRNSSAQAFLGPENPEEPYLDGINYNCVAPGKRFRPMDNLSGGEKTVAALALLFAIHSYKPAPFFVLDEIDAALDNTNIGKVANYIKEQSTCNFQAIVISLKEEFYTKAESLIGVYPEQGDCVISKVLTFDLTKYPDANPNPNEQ

[2] = target: T2, SMC1A-R586W (mouse (endogenous in V6.5 mESCs)) (UniProt Q9CU62); test: as above
T2 sequence: T1 sequence with R586W

binding [1]: binds
binding [2]: binds
B1: STAG2 (protein, UniProt O35638 1-1231)
chain: MIAAPEIPTDFNLLQESETHFSSDTDFEDIEGKNQKQGKGKTCKKGKKGPAEKGKSGNGGGKPPSGSNRMNGHHQQNGVENMMLFEVVKMGKSAMQSVVDDWIESYKHDRDIALLDLINFFIQCSGCKGVVTAEMFRHMQNSEIIRKMTEEFDEDSGDYPLTMAGPQWKKFKSSFCEFIGVLVRQCQYSIIYDEYMMDTVISLLTGLSDSQVRAFRHTSTLAAMKLMTALVNVALNLSINMDNTQRQYEAERNKMIGKRANERLELLLQKRKELQENQDEIENMMNAIFKGVFVHRYRDAIAEIRAICIEEIGIWMKMYSDAFLNDSYLKYVGWTMHDKQGEVRLKCLTALQGLYYNKELNSKLELFTSRFKDRIVSMTLDKEYDVAVQAIKLLTLVLQSSEEVLTAEDCENVYHLVYSAHRPVAVAAGEFLYKKLFSRRDPEEDGLMKRRGRQGPNANLVKTLVFFFLESELHEHAAYLVDSMWDCATELLKDWECMNSLLLEEPLSGEEALTDRQESALIEIMLCTIRQAAECHPPVGRGTGKRVLTAKEKKTQLDDRTRITELFAVALPQLLAKYSVDAEKVTNLLQLPQYFDLEIYTTGRLEKHLDALLRQIRNIVEKHTDTDVLEACSKTYHALCNEEFTIFNRVDISRSQLIDELADKFNRLLEDFLQEGEEPDEDDAYQVLSTLKRITAFHNAHDLSKWDLFACNYKLLKTGIENGDMPEQIVIHALQCAHYVILWQLAKITESTSTKEDLLRLKKQMRVFCQICQHYLTNVNTTVKEQAFTILCDILMIFSHQIMSGGRDMLEPLVYTPDSSLQSELLSFILDHVFIEQDDDSNSADGQQEDEASKIEALHKRRNLLAAFCKLIVYTVVEMNTAADIFKQYMKYYNDYGDIIKETMSKTRQIDKIQCAKTLILSLQQLFNEMIQENGYNFDRSSSTFSGIKELARRFALTFGLDQLKTREAIAMLHKDGIEFAFKEPNPQGESHPPLNLAFLDILSEFSSKLLRQDKRTVYVYLEKFMTFQMSLRREDVWLPLMSYRNSLLAGGDDDTMSVISGMSSRGSTVRSKKSKPSTGKRKVVEGMQLALPEESSSSDSMWLSREQTLHTPVMMQTPQLTSTIMREPKRLRPEDSFMSVYPMQAEHHQTPLDYNRRGTSLMEDDEEPIVEDVMMSSEGRIEDLNEGMDFDTMDIDLPPSKNRRERTELKPDFFDPASIMDESVLGVSMF
